According to publication PMC6255977:

How the values were obtained:
[1] = biological target: SmbHLH51 fused to the DNA-binding domain (Salvia miltiorrhiza); experiment: two-hybrid; Matchmaker Gold yeast two-hybrid system, yeast strain AH109; AtPAP1 on the activation domain (pGADT7), SmbHLH51 on the DNA-binding domain (pGBKT7); growth on synthetic dextrose/-Ade/-His/-Leu/-Trp medium; images on day 5
[2] = biological target: SmbHLH51 fused to the C-terminal domain of firefly luciferase (Salvia miltiorrhiza); experiment: split reporter; firefly luciferase complementation imaging (LCI); NLuc and CLuc constructs co-infiltrated by Agrobacterium GV3101 into tobacco leaves; Luc activity imaged with IVIS Spectrum

B1: Arabidopsis thaliana production of anthocyanin pigment 1 (AtPAP1) fused to the activation domain (protein, UniProt Q9FE25 1-248)
chain: MEGSSKGLRKGAWTTEEDSLLRQCINKYGEGKWHQVPVRAGLNRCRKSCRLRWLNYLKPSIKRGKLSSDEVDLLLRLHRLLGNRWSLIAGRLPGRTANDVKNYWNTHLSKKHEPCCKIKMKKRDITPIPTTPALKNNVYKPRPRSFTVNNDCNHLNAPPKVDVNPPCLGLNINNVCDNSIIYNKDKKKDQLVNNLIDGDNMWLEKFLEESQEVDILVPEATTTEKGDTLAFDVDQLWSLFDGETVKFD
binding [1]: binds

B2: AtPAP1 fused to the N-terminal domain of firefly luciferase (protein, UniProt Q9FE25 1-248)
chain: MEGSSKGLRKGAWTTEEDSLLRQCINKYGEGKWHQVPVRAGLNRCRKSCRLRWLNYLKPSIKRGKLSSDEVDLLLRLHRLLGNRWSLIAGRLPGRTANDVKNYWNTHLSKKHEPCCKIKMKKRDITPIPTTPALKNNVYKPRPRSFTVNNDCNHLNAPPKVDVNPPCLGLNINNVCDNSIIYNKDKKKDQLVNNLIDGDNMWLEKFLEESQEVDILVPEATTTEKGDTLAFDVDQLWSLFDGETVKFD
binding [2]: binds

No constants are given. Whether binding was seen depends on the method and setting. Binding can be weak; no strength is given. Sequences can lack the tags named with a protein. For some assays here: In cells and extracts the contact can be indirect.
